# Screen size: about 390,000 compounds; about 4,000 (1%) were called active. The shares of active, inactive and inconclusive entries below differ from those in the screen. Calls follow the shape of the dose curve; as a rule, active = well fitted inhibition curve with a large enough effect; inconclusive = small, poorly fitted or top-dose-only effect, or another doubt; inactive = no such curve, though single readings can be large or run the other way. Potencies beside an inconclusive call are fits to weak or partial responses and may not hold up.
# Protein sequences, listed by entry. Tags and fused reporters are not part of them. Lines headed by an entry give the natural chain unless they say otherwise; changes in a name come on top.
# UniProt Q9UNA4: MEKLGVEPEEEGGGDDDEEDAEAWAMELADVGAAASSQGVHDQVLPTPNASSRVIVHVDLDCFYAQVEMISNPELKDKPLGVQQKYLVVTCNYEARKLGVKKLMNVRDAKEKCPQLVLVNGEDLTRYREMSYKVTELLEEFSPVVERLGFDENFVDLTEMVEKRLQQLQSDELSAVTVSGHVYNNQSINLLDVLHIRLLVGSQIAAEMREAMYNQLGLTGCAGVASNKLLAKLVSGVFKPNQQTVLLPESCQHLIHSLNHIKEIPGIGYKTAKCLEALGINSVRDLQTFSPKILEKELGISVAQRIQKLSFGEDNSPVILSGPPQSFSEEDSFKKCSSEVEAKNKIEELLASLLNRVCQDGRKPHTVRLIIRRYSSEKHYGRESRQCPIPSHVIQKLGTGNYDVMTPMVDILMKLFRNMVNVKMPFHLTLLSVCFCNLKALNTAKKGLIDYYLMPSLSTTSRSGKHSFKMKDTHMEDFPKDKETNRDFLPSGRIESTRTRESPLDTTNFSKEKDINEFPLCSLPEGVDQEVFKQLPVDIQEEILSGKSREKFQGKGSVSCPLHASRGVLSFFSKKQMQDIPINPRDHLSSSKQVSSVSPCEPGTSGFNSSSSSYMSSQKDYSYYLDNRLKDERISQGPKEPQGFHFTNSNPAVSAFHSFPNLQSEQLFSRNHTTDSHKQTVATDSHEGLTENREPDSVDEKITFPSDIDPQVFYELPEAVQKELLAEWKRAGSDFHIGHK
# Target: DNA polymerase iota (Homo sapiens) (UniProt Q9UNA4)
# Assay: qHTS for Inhibitors of Polymerase Iota
# Conditions: Pol iota fluorescent replication assay, 10 min; series mostly up to 115 µM
# Summary of the method: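 Fluorescent replication assay read twice, at 0 min and 10 min after adding 50 nM (final) substrate. Enzyme (10 nM) and compounds were first incubated 15 min at room temperature; enzyme-free buffer wells were negative controls.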
# Potency is read from the fitted curve at half-maximal effect.
row,Compound,Potency
1,CCc1ccc(N2C(=O)NC(=O)/C(=C\c3cccn3CCOc3ccc(C(C)C)cc3)C2=O)cc1,"inconclusive: 17.8 µM [inhibitor, partial curve, poor fit]"
2,COC(=O)C1=C(c2ccc(OC)c(OC)c2)C[C@@H]2CC[C@H]1N2C(=O)NCCOc1ccccc1Cl,"inconclusive: 89.1 µM [inhibitor, single point]"
3,COc1cccc(NP(=O)(Oc2ccccc2)Oc2ccccc2)c1,"inconclusive: 79.4 µM [inhibitor, partial curve, poor fit]"
4,O=C1C2CCCC1C(N1CCCC1)CC2 (centres undefined),"inconclusive: 12.6 µM [inhibitor, partial curve, poor fit]"
5,Cc1ccnc(NS(=O)(=O)c2ccc(N=Cc3c(O)n(C)c(=O)n(C)c3=O)cc2)n1,inactive
6,COC(=O)COc1ccc(C(c2c(C)[nH][nH]c2=O)c2c(C)[nH][nH]c2=O)cc1,"inconclusive: 22.4 µM [inhibitor, single point]"
7,N#CC(C#N)=Cc1ccc(C=C(C#N)C#N)cc1,"inconclusive: 15.8 µM [inhibitor, partial curve, poor fit]"
8,O=C1NC(=O)N(Cc2ccccc2)C(=O)C1Cc1ccccc1 (centres undefined),"inconclusive: 39.8 µM [inhibitor, single point]"
9,Cc1ccc(C(=O)N[C@@H](C)CN2C3=NC[C@H](Cc4ccccc4)N3C[C@H]2Cc2ccc(O)cc2)cc1Br,"inconclusive: 28.2 µM [inhibitor, full curve, poor fit]"
10,C[C@]12C=CC(=O)C=C1CC[C@@H]1C2=CC[C@]2(C)[C@@H](C(=O)CN3CCN(c4cc(N5CCCC5)nc(N5CCCC5)n4)CC3)CC[C@@H]12,"inconclusive: 35.5 µM [inhibitor, single point]"
11,CN1C(=O)/C(=C/c2ccc(N3CCCCCC3)o2)C(=O)NC1=S,"inconclusive: 5.62 µM [inhibitor, partial curve, poor fit]"
12,Cc1ccc2c(c1)=NC(=O)/C(=C/c1c(O)[nH]c(=O)[nH]c1=O)C=2,inactive
13,C=C1C(=O)O[C@H]2C[C@@H](C)[C@@H]3C=CC(=O)[C@@]3(C)C[C@H]12,"inconclusive: 17.8 µM [inhibitor, full curve, poor fit]"
14,Cc1cccc(N2C(=O)NC(=O)/C(=C\c3cccn3-c3ccc(Cl)cc3)C2=O)c1,active: 22.4 µM
15,COc1cccc(N=Nc2c(O)[nH]c(=S)[nH]c2=O)c1,"inconclusive: 28.2 µM [inhibitor, full curve]"
16,O=C1NC(=O)N(Cc2ccc(F)cc2)C(=O)/C1=C/c1cccs1,"inconclusive: 25.1 µM [inhibitor, partial curve]"
17,O=C1CC(=O)N(c2cccc(Br)c2)C(=O)N1,"inconclusive: 20 µM [inhibitor, partial curve, poor fit]"
18,COC(=O)Cn1cc(C=C2C(=O)NC(=O)NC2=O)c2ccccc21,"inconclusive: 14.1 µM [inhibitor, partial curve, poor fit]"
19,CC(C)CCC1(CCO)C(=O)NC(=S)NC1=O,"inconclusive: 100 µM [inhibitor, single point]"
20,Cc1ccc(C(=O)NC2CCN(S(=O)(=O)c3ccc(C)cc3)CC2)cc1,"inconclusive: 0.631 µM [inhibitor, full curve, poor fit]"
21,O=c1c2ccccc2nc(/C=C/c2ccccc2F)n1-c1ccccc1O,"inconclusive: 28.2 µM [inhibitor, partial curve]"
22,COc1ccc(C=O)cc1O,"inconclusive: 89.1 µM [inhibitor, single point]"

# A few values from the list.
# In Potency, `Cc1ccc(C(=O)N[C@@H](C)CN2C3=NC[C@H](Cc4ccccc4)N3C[C@H]2Cc2ccc(O)cc2)cc1Br` has inconclusive: 28.2 µM [inhibitor, full curve, poor fit]
# In Potency, `COc1cccc(N=Nc2c(O)[nH]c(=S)[nH]c2=O)c1` has inconclusive: 28.2 µM [inhibitor, full curve]

# Next part.

row,Compound,Potency
1,Cc1cccn2c(=O)c3c(nc12)N1CCC(Cc2ccccc2)CC1C1(C3)C(=O)N(C)C(=O)N(C)C1=O (centres undefined),"inconclusive: 28.2 µM [inhibitor, partial curve, poor fit]"
2,COc1ccc(Cn2c(O)c(/C=N/NC(=O)c3ccncc3)c(=O)[nH]c2=O)cc1,inactive
3,CCCCn1c(NC(=O)c2ccc(Br)o2)c(C(=O)OCC)c2nc3ccccc3nc21,"inconclusive: 8.91 µM [inhibitor, partial curve, poor fit]"
4,COc1cc([C@@H]2c3cc4c(cc3[C@H](O)[C@H]3COC(=O)[C@H]23)OCO4)cc(OC)c1OC,"inconclusive: 11.2 µM [inhibitor, partial curve, poor fit]"
5,N#CC1=C(N)Oc2c(c(=O)sc3ccccc23)C1c1ccncc1 (centres undefined),inactive
6,O=C1NC(=O)C(=Cc2ccccc2[N+](=O)[O-])C(=O)N1,inactive
7,COc1ccc(-c2nc3ccccc3c(=O)n2-c2ccc(OC)cc2)cc1,inactive
8,NCC(CC(=O)O)C1CCCCC1 (centres undefined),active: 100 µM
9,O=C1NC(=O)N(Cc2ccccc2Cl)C(=O)/C1=C/N1CCOCC1,inactive
10,CCC12CN3CC(CC)(CN(C1)C3c1c(C)[nH]c(=O)[nH]c1=O)C2=O (centres undefined),inactive
11,CC(=Nc1ccc2c(c1)CCC2)c1c(O)n(-c2ccccc2)c(=O)[nH]c1=O,inactive
12,COC(=O)C1=C(c2cccc(OCc3ccccc3)c2)C[C@@H]2CC[C@H]1N2C(=O)NCc1ccccc1OC,"inconclusive: 100 µM [inhibitor, single point]"
13,COc1ccccc1-n1c(O)c(/C=C2\C=Nc3ccccc32)c(=O)[nH]c1=O,"inconclusive: 10 µM [inhibitor, full curve, poor fit]"
14,C=CCN1C(=O)/C(=C/c2ccc(N3CCOCC3)o2)C(=O)NC1=S,"inconclusive: 35.5 µM [inhibitor, partial curve, poor fit]"
15,CC(C)C1(C)N=C(c2ncccc2C(=O)O)NC1=O (centres undefined),"inconclusive: 5.01 µM [inhibitor, full curve, poor fit]"
16,Cc1ccc(N2C(=O)NC(=O)/C(=C\c3ccoc3)C2=O)cc1,active: 31.6 µM
17,CC[C@H]1CN2CCc3cc(OC)c(OC)cc3[C@@H]2C[C@@H]1C[C@H]1NCCc2cc(OC)c(OC)cc21,inactive
18,O=C1NC(=O)N(Cc2ccccc2)C(=O)/C1=C\N1CCCc2ccccc21,"inconclusive: 28.2 µM [inhibitor, partial curve, poor fit]"
19,CN1Cc2c(c(C#N)c(N)n(C)c2=S)CC1(C)C,"inconclusive: 39.8 µM [inhibitor, single point]"
20,CC[N+](CC)(CC)CC,"inconclusive: 1.26 µM [inhibitor, partial curve, poor fit]"
21,CCc1ccccc1N1C(=O)NC(=O)/C(=C\c2cc(C)n(C)c2C)C1=O,inactive
22,Cc1ccc(-c2nc3c(=O)n(C)c(=O)nc-3n(C)n2)cc1,inactive

row,Compound,Potency
1,CCC(C)C1NC(=O)C2CCCN2C(=O)C(CC(C)C)OC(=O)CCNC(=O)C(C)N(C)C(=O)C(C(C)C)N(C)C1=O (centres undefined),inactive
2,O=C1NC(=O)C(=Cc2ccccc2OCCOc2ccc([N+](=O)[O-])cc2)C(=O)N1,"inconclusive: 20 µM [inhibitor, full curve]"
3,C[C@@H]1O[C@@H](Oc2c(-c3ccc(O)c(O)c3)oc3cc(O)cc(O)c3c2=O)[C@H](O)[C@H](O)[C@H]1O,active: 35.5 µM
4,CC1(C)C2SCC(=O)N2CCN1CC(=O)NN (centres undefined),"inconclusive: 35.5 µM [inhibitor, single point]"
5,Cc1ccc(NC(=O)Nc2ccc3nc(N4CCN(C)CC4)cc(C)c3c2)cc1F,"inconclusive: 70.8 µM [inhibitor, partial curve, poor fit]"
6,COc1ccc(/C=C2/C(=O)N(Cc3ccco3)C(=O)N(C(C)C)C2=O)cc1,active: 7.94 µM
7,Cc1cc(/C=C2\C(=O)NC(=O)N(c3ccc(Cl)cc3)C2=O)c(C)n1C,inactive
8,C=C(C)C(Cc1c(OC)ccc(C(=O)/C=C/c2ccc(O)cc2)c1O)OO (centres undefined),inactive
9,COc1ccc2c3c1OC1C(=O)CC[C@@]4(O)[C@@H](C2)N(C)CC[C@]314 (some centres undefined),"inconclusive: 22.4 µM [inhibitor, partial curve, poor fit]"
10,O=C(c1cc(S(=O)(=O)N2CCCCC2)ccc1F)N1CCC2(CC1)OCCO2,"inconclusive: 89.1 µM [inhibitor, single point]"
11,CC(C)(C)c1ccc(S(=O)(=O)Nc2ccc(O)c(Sc3nc4ccccc4s3)c2)cc1,"inconclusive: 12.6 µM [inhibitor, full curve, poor fit]"
12,N/C(=N/[N+](=O)[O-])N1CCN(C(=O)Oc2ccc([N+](=O)[O-])cc2)CC1,"inconclusive: 28.2 µM [inhibitor, single point]"
13,CCOc1ccc(Cc2c(O)[nH]c(=O)[nH]c2=O)cc1,"inconclusive: 28.2 µM [inhibitor, partial curve, poor fit]"
14,COc1ccc2c(c1OC)C(=O)OC2c1c(O)n(C2CCCCC2)c(=O)[nH]c1=O (centres undefined),active: 25.1 µM
15,Nc1c(C(=O)NCc2ccco2)c2nc3ccccc3nc2n1Cc1ccc(F)cc1,inactive
16,COc1ccc2nc(NC(=O)c3nc(S(=O)(=O)Cc4cccc(C)c4)ncc3Cl)sc2c1,"inconclusive: 89.1 µM [inhibitor, partial curve, poor fit]"
17,CC(C)n1c(=O)c(C=Nc2ccc(S(N)(=O)=O)cc2)c(O)n(Cc2ccco2)c1=O,"inconclusive: 17.8 µM [inhibitor, full curve, poor fit]"
18,C[C@]12C[C@H](O)[C@@H](O)CC1=CCC1C2CC[C@@]2(C)C1CC[C@@H]2O (some centres undefined),inactive
19,COc1ccc(OC)c(N2C(=O)NC(=O)/C(=C\c3ccc([N+](=O)[O-])s3)C2=O)c1,active: 20 µM
20,CCCCn1c(N)c(C(=O)NCc2cccs2)c2nc3ccccc3nc21,"inconclusive: 22.4 µM [inhibitor, partial curve, poor fit]"
